Measured values from PubChem BioAssay AID493014 (National Center for Advancing Translational Sciences (NCATS), 2011).
In all, about 340,000 compounds went through this assay and about 170 (0.05%) were called active. Inconclusive results, whose numbers are uncertain, are shown with a selection of clear calls. The call rests on the fitted dose curve; in most records, active means well fitted inhibition curve with a large enough effect in the signal ratio, with a control signal flat (not every such curve was filed as active); inconclusive means small, poorly fitted or top-dose-only effect, or effect the other way, or a change in a side signal; inactive means flat fitted curve, though single readings scatter; the % refers to the signal ratio. Potencies beside an inconclusive call are fits to weak or partial responses and may not hold up.

experiment: qHTS Assay to Find Inhibitors of Chronic Active B-Cell Receptor Signaling; settings: ABC-DLBCL IkBa-CBG/CBR reporter, luminescence ratio (green luciferase fused to IkBa over red control in TMD8 lymphoma cells), 4 h; activity change, negative = inhibition: at 46.1 µM (top of the series);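 on activity change, negative = inhibition: plate controls were basal doxycycline-induced cells for no effect and cells given 10 µM MG132 for full effect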
Outline: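 Concentration-response series (up to 46 uM) were applied to TMD8 dual-reporter cells for 4 h at 37C with doxycycline. Green/red ratio, after filter-overlap correction, defined %Activity; red signal alone was normalised to basal cells and zero luminescence.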
Potency means the concentration at half of the fitted maximal effect.

Row | Compound | activity change, negative = inhibition | Potency
1 | O=C(NCc1cc([N+](=O)[O-])ccc1O)c1cccnc1Sc1ccccc1Cl | inconclusive: 322% | –
2 | CC(=O)Nc1cccc(Nc2nc(-c3ccccc3F)nc3ccccc23)c1 | inconclusive: 17.6% | –
3 | CCOC(=O)C1CCCN(C(=O)c2ccc3c(=O)n(CCOC)c(=S)[nH]c3c2)C1 (centres undefined) | – | inconclusive: 1.64 µM [rising, full curve]
4 | O=C(CC1CCCC1)Nc1cccc(Br)c1 | inconclusive: 0.745% | –
5 | O=C1CC(c2ccccc2)NN1 (centres undefined) | – | inconclusive: 20.6 µM [falling, partial curve, poor fit]
6 | COC(=O)c1cccc(NC(=O)Cn2nnc3ccccc32)c1 | inconclusive: 0.953% | –
7 | CCOC(=O)c1c(NC(C)=O)sc2c(OCCN(CC)CC)c(Br)ccc12 | inactive: 8.11% | –
8 | CCCCCOC(=O)Cc1c(O)c2ccccc2n(C)c1=O | inconclusive: -6.14% | –
9 | Cc1ccc(N(CC(=O)NC2CCCCC2)C(=O)CNC(=O)c2cccs2)cc1 | – | inconclusive: 12.6 µM [falling, single point]
10 | O=C(O)CNC(=O)c1ccc(NC(=O)/C(=C/c2ccccc2)NC(=O)c2ccccc2Br)cc1 | inconclusive: -0.445% | –
11 | COc1ccc(C(=O)OC(C)C(=O)NC2CCCc3ccccc32)cc1OC (centres undefined) | inconclusive: 1.95% | –
12 | S=c1[nH]nc(Nc2ccc(Cl)cc2)s1 | inconclusive: 0.652% | –
13 | Cc1ccnc2nc(C(=O)OCC(=O)N(CC(C)C)C3CCS(=O)(=O)C3)nn12 (centres undefined) | inactive: 0.75% | –
14 | CCOC(=O)c1[nH]c(C)c(CCC(=O)OC)c1C | inconclusive: -18.7% | –
15 | Cc1ccc(S(=O)(=O)N2CCCC2)cc1C(=O)NCC(C)(C)N1CCOCC1 | inconclusive: 0.333% | –
16 | O=C(O)C1CCCN1S(=O)(=O)c1ccc(Br)s1 (centres undefined) (tested in a mixture with another compound) | inconclusive: 6.21% | –
17 | CC(C)(C)c1ccc(OCCC(=O)Nc2ccc(N3CCOCC3)cc2N2CCOCC2)cc1 | – | inconclusive: 7.31 µM [falling, partial curve, poor fit]
18 | COc1ccc2nc(Cl)c(C3CC(c4ccco4)=NN3C(=O)CCC(=O)O)cc2c1 (centres undefined) | inconclusive: 3.44% | –
19 | CC(C)(C)C1=Nn2c(nnc2-c2n[nH]c3c2CCC3)SC1 | inconclusive: 3.72% | –
20 | COc1ccc(NC(=O)c2ccccc2SC)cc1 | inconclusive: -17.5% | –
21 | O=C1CC(SCc2nc3ccccc3[nH]2)C(=O)N1c1cccc(F)c1 (centres undefined) | – | inconclusive: 29.1 µM [falling, single point]
22 | Cc1ccc(NC(=O)Cc2ccc(Cl)c(Cl)c2)cc1S(=O)(=O)N(C)C | inconclusive: -7.78% | –
23 | COc1ccc2c(C(=O)CN3CCC(C)CC3)c[nH]c2c1 | inconclusive: 4% | –
24 | COc1cccc(-n2nc(-c3ccnn3-c3ccc(F)cc3)c(=O)n(C)c2=O)c1 | – | inconclusive: 9.2 µM [rising, partial curve, poor fit]
25 | O=C(/C=C/Nc1ccc(Oc2ccccc2)cc1)c1ccco1 | inconclusive: 8.85% | –
26 | COC(=O)CSc1ncnc2scc(-c3ccccc3)c12 | inactive: -7.85% | –
27 | O=C(O)c1nc(-c2ccccc2)n(-c2ccc(Cl)cc2)n1 | inconclusive: 14.4% | –

Row | Compound | activity change, negative = inhibition | Potency
28 | CCN(Cc1cc(=O)n2ccsc2n1)Cc1nc2ccccc2c(=O)[nH]1 | inconclusive: 16.8% | –
29 | CC(C)S(=O)(=O)C1=NSC2=NC(=O)/C(=C\c3ccc(-c4cccc(C(=O)O)c4)o3)C(=N)N21 | – | inconclusive: 12.6 µM [falling, partial curve]
30 | Cc1ccccc1N1CC(c2nc3ccccc3[nH]2)CC1=O (centres undefined) | inconclusive: 15.5% | –
31 | COC(=O)c1ccc(-c2ccc(/C=N/NC(=O)CC3(C)OCCCO3)o2)cc1 | – | inconclusive: 20 µM [falling, partial curve]
32 | Cc1ccc(S(=O)(=O)Nc2ccc(NC(=O)Nc3ccc(F)cc3F)cc2)cc1 | – | inconclusive: 18.4 µM [falling, single point]
33 | Cc1ccc(NC(=O)C2C3C=CC4(CN(Cc5cccnc5)C(=O)C24)O3)cc1F (centres undefined) | inconclusive: 13.2% | –
34 | Cc1cc(N2CCCC2=O)ccc1S(=O)(=O)NC1CCCCC1 | inactive: 0.388% | –
35 | COc1cccc(C(=O)NCC(=O)N/N=C/c2c(C)[nH]c3ccccc23)c1 | – | inconclusive: 6.31 µM [falling, single point]
36 | Cc1ccc(C(=O)CSc2nnc(-c3ccc4[nH]c(C)c(C)c4c3)o2)cc1C | inconclusive: 7.78% | –
37 | Cc1noc(C)c1COC(=O)c1cccc(S(=O)(=O)N2CCCCCC2)c1 | inconclusive: -9.76% | –
38 | CN(c1ccccc1)S(=O)(=O)c1cc(Cl)ccc1Cl | inconclusive: 4.1% | –
39 | O=C(Cc1ccccc1F)Nc1cc(S(=O)(=O)N2CCOCC2)ccc1N1CCCC1 | inconclusive: -0.93% | –
40 | O=C(CCCc1nc(-c2ccccc2Cl)no1)NCc1cccnc1 | inconclusive: 7.37% | –
41 | CC(=O)NC(c1ccco1)c1cc(Br)c2cccnc2c1O (centres undefined) | – | inconclusive: 20.6 µM [falling, single point]
42 | CCC(=O)Nc1cccc2c1C(=O)N(C)C2=O | inconclusive: -26.5% | –
43 | Fc1ccc(NC(=S)Nc2cc(Cl)ccc2Cl)cc1 | inactive: 3.13% | –
44 | O=C(NC(=S)N1CCN(c2nc(-c3ccccc3)cs2)CC1)c1cccnc1 | inconclusive: -14.6% | –
45 | CCCCC(=O)c1c(O)c2ccccc2oc1=O | – | inconclusive: 35.5 µM [rising, single point]
46 | CCN(CC)S(=O)(=O)c1cccc(NC(=O)CCNC(=O)NC23CC4CC(CC(C4)C2)C3)c1 | inconclusive: -5.82% | –
47 | O=C(Nc1ccc2c(c1)oc1ccccc12)c1ccncc1 | – | inconclusive: 35.5 µM [falling, single point]
48 | CCOC(=O)C1CCN(c2ncnc3c2c(-c2ccccc2)cn3-c2ccc(C)cc2)CC1 | inconclusive: 9.04% | –
49 | CCOC(=O)c1ccc(NC(=O)CSc2nccn2C)cc1 | inconclusive: -5.85% | –
50 | O=C(Nc1ccc(Cl)c(Cl)c1)c1ccc2c(c1)OCO2 | – | inconclusive: 35.5 µM [falling, single point]
51 | COCCNC(=O)c1cc2c(=O)[nH]c3ccccc3c2s1 | inconclusive: -28.2% | –
52 | Cc1ccc(NC(=O)COC(=O)Cc2csc(-c3ccc(Cl)cc3)n2)cc1C | inconclusive: 9.18% | –
53 | O=C(/C=C/c1ccccc1Cl)OCC(=O)N1CCCC1 | inconclusive: -24.5% | –
54 | CCOC(=O)CSc1nnc(NC(=O)c2cccc([N+](=O)[O-])c2)s1 | – | inconclusive: 29.1 µM [falling, partial curve, poor fit]

A few values from the list:
activity change, negative = inhibition, `Cc1ccc(C(=O)CSc2nnc(-c3ccc4[nH]c(C)c(C)c4c3)o2)cc1C` is entered as inconclusive: 7.78%
activity change, negative = inhibition, `CCOC(=O)C1CCN(c2ncnc3c2c(-c2ccccc2)cn3-c2ccc(C)cc2)CC1` is entered as inconclusive: 9.04%
Potency, `CCOC(=O)CSc1nnc(NC(=O)c2cccc([N+](=O)[O-])c2)s1` is entered as inconclusive: 29.1 µM [falling, partial curve, poor fit]

Carrying on.

Row | Compound | activity change, negative = inhibition | Potency
55 | CC(C)(C)c1ccc(OCCCNCc2ccccc2)cc1 | – | inconclusive: 29.1 µM [falling, partial curve, poor fit]
56 | CC(C)CC(=O)NC(c1ccccc1Cl)c1c(O)ccc2ccccc12 (centres undefined) | inconclusive: 11.1% | –
57 | Cc1ccc(N2CC(C(=O)OCc3ccccc3F)CC2=O)cc1 (centres undefined) | inconclusive: 8.16% | –
58 | CCc1ccc(N=c2c([N+](=O)[O-])nn(-c3ccc4c(c3)OCCO4)n2O)cc1 | inactive: -3.66% | –
59 | CC1=NN(C(=O)Cn2nc([N+](=O)[O-])c(Br)c2C)C(O)(C(F)(F)F)C1 (centres undefined) | inactive: 2.57% | –
60 | C=CCn1c(SCC(=O)c2c(N)n(C3CC3)c(=O)[nH]c2=O)nnc1-c1ccc(OC)cc1 | inactive: 2.27% | –
61 | COc1ccc(C(=O)CCC(=O)NC2=NCCS2)cc1 | inactive: 4.3% | –
62 | C[C@H](CO)N1C[C@H](C)[C@@H](CN(C)S(=O)(=O)c2cccs2)Oc2ccc(NS(=O)(=O)c3ccccc3)cc2C1=O | inconclusive: -3.02% | –
63 | Cc1ccc(CNC(=O)c2ccc(COc3ccccc3)cc2)cc1 | inconclusive: 10.5% | –
64 | CC(=O)c1ccc(NC(=O)Nc2ccc(Cl)cc2)cc1 | inconclusive: 22.4% | –
65 | O=S(=O)(Nc1ncccn1)c1ccccc1 | inactive: 1.55% | –
66 | C(=C\c1ccccc1)/C=N/Nc1nc2ccccc2[nH]1 | – | inconclusive: 4.61 µM [cytotoxic, partial curve]
67 | Oc1ccc(/C=N\Nc2nncc(-c3ccccc3)n2)cc1 | – | inconclusive: 22.4 µM [falling, partial curve]
68 | Cc1ccc(S(=O)(=O)N2[C@@H](c3ccc(C(C)(C)C)cc3)C(C(=O)O)=CC[C@H]2c2ccc(C(C)C)cc2)cc1 | inconclusive: -1.15% | –
69 | O=C1OCCC1Sc1nnc(-c2ccc(O)cc2)o1 (centres undefined) | – | inconclusive: 35.5 µM [rising, single point]
70 | CCOC(=O)C1CCCN(C(=O)CSc2nnnn2C)C1 (centres undefined) | inconclusive: -1.15% | –
71 | C[C@H](NC(=O)C1CCN(S(=O)(=O)c2ccccc2)CC1)C(=O)NCc1ccc(Cl)c(Cl)c1 | inconclusive: -1.65% | –
72 | CCOc1cc(-c2nc3ccccn3c2NCC2CCCO2)ccc1O (centres undefined) | inconclusive: 2.53% | –
73 | CC1CC(C)CN(S(=O)(=O)c2ccc(C(=O)OCC(=O)NCCN3C(=O)CSC3=O)cc2)C1 (centres undefined) | – | inconclusive: 2.24 µM [falling, partial curve, poor fit]
74 | CCc1cccc(NC(=O)Cn2cc3c(n2)CCCC3)c1 | inconclusive: 13.2% | –
75 | O=C(CSc1nnc(-c2ccccc2Cl)o1)Nc1ccccn1 | – | inconclusive: 3.16 µM [rising, full curve, poor fit]
76 | CCc1nc2sc3ccccc3c(=O)c2c(=O)n1Cc1ccco1 | – | inconclusive: 14.6 µM [falling, partial curve, poor fit]
77 | COC(=O)CCCNc1ncccc1[N+](=O)[O-] | inconclusive: 2.68% | –
78 | COc1ccc2nc(NC(=O)CSc3nc(SC)ns3)sc2c1 | inconclusive: -18.6% | –
79 | O=C1C=CC(=O)N1c1ccc(O)cc1 | inconclusive: 24.3% | –
